Source: PMC3060869
No constants are given. Whether binding was seen depends on the method and setting. Binding seen in cells or lysates may run through a third protein. Some entries that bind do so weakly or less than the wild type.

Sequences of proteins named here, by UniProt entry; tags and fusion partners are left off.
UniProt P20152: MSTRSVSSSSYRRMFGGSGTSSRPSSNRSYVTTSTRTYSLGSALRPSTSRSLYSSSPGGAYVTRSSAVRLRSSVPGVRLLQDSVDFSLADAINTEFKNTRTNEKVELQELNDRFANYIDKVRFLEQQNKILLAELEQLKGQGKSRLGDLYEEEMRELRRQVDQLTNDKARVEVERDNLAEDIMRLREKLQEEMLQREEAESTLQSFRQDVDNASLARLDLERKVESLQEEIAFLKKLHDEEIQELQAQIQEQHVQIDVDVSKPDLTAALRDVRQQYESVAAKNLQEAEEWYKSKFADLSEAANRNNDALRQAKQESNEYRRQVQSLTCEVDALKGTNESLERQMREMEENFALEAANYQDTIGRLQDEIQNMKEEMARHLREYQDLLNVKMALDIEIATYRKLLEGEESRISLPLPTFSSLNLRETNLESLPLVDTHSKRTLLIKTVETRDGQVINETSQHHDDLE

Target: vimentin (mouse lens) (mouse (endogenous in lens)) (UniProt P20152)
Test: co-IP; lens extracts of 12-week-old mice (50 mM Tris-HCl pH 7.4, 150 mM NaCl, 1 mM EDTA, 0.1% SDS); polyclonal anti-vimentin coupled to amino-link plus resin; precipitates blotted for αB-crystallin; control rabbit serum on resin

B1: αB-crystallin (wild type, mouse lens) (protein, UniProt P23927 1-175)
chain: MDIAIHHPWIRRPFFPFHSPSRLFDQFFGEHLLESDLFSTATSLSPFYLRPPSFLRAPSWIDTGLSEMRLEKDRFSVNLDVKHFSPEELKVKVLGDVIEVHGKHEERQDEHGFISREFHRKYRIPADVDPLTITSSLSSDGVLTVNGPRKQVSGPERTIPITREEKPAVAAAPKK
  binding: binds

B2: αB-crystallin R120G (knock-in mouse lens) (protein, UniProt P23927 1-175)
chain: MDIAIHHPWIRRPFFPFHSPSRLFDQFFGEHLLESDLFSTATSLSPFYLRPPSFLRAPSWIDTGLSEMRLEKDRFSVNLDVKHFSPEELKVKVLGDVIEVHGKHEERQDEHGFISREFHGKYRIPADVDPLTITSSLSSDGVLTVNGPRKQVSGPERTIPITREEKPAVAAAPKK
  binding: binds
